# From the supplement of paper PMC10032668
# Amino acid sequences for entries named in this document (tags omitted).
# TUBB8, Q3ZCM7, UniProt Q3ZCM7, whole entry: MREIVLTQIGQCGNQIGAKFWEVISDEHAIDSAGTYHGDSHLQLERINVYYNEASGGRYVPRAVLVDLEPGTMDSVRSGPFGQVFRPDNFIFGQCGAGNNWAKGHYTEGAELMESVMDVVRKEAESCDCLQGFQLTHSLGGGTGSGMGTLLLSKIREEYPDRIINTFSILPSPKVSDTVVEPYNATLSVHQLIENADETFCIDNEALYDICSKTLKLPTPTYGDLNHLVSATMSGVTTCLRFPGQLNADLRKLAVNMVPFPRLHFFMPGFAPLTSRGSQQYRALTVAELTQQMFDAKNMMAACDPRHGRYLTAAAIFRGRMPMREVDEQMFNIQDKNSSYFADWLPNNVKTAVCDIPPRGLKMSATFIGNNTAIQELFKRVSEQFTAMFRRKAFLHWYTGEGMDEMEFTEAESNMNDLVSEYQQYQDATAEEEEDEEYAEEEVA
# DLX6, P56179, UniProt P56179, whole entry: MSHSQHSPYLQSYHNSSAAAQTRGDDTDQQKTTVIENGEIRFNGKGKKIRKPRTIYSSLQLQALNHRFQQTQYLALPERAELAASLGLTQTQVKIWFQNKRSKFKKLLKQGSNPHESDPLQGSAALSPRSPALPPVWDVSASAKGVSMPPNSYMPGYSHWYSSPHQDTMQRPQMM
# KPNA4, O00629, UniProt O00629, whole entry: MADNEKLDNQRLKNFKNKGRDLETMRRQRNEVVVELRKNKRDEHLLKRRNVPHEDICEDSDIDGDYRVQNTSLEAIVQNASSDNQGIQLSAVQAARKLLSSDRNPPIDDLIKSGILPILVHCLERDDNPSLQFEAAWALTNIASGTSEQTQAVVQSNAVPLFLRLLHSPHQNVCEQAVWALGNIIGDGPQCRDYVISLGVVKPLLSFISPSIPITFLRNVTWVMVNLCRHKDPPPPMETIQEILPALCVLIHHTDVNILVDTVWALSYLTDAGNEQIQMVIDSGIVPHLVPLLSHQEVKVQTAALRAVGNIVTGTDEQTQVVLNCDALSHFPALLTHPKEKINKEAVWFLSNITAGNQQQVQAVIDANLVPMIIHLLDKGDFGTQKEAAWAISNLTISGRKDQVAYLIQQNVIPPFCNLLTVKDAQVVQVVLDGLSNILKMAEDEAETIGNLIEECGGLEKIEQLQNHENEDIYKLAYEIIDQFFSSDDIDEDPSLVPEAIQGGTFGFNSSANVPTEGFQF
# SRSF9, Q13242, UniProt Q13242, whole entry: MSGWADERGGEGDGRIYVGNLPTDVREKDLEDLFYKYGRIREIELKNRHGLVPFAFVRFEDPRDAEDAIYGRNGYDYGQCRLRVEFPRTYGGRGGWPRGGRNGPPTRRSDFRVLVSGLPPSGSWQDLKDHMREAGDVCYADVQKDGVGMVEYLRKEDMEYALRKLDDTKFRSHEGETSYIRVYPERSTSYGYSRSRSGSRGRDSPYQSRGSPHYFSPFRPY
# ± gives the standard deviation of the averaged measurements. The list shows a part of the results. Only hits are listed; about a third recur on repeated control peptides.
# Key:
# Assay in all cases: PRISMA enrichment of interactor (LFQ) in peptide spot vs all other peptide spots (log2 fold change); higher = stronger / more specific binding of the interactor to the peptide
# ANP32A, P39687 = target: ANP32A, P39687
# Experimental: (§1)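 PRISMA: 221 full-length sORF-encoded peptides (3-15 aa), plus SOS1/GLUT1 control peptides, were spot-synthesized on cellulose membranes in triplicate. Membranes were incubated with HEK293T lysate, and bound proteins were identified by LC-MS/MS with LFQ. Enrichment is the log2 fold change versus all other peptide spots; only significant interactors are listed (cutoff c=6, x0=2.8).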
# ANP32B, Q92688 = target: ANP32B, Q92688
# Experimental: as §1
# ANP32E, Q9BTT0 = target: ANP32E, Q9BTT0
# Experimental: as §1
# MRPL17, Q9NRX2 = target: MRPL17, Q9NRX2
# Experimental: as §1
# MRPS34, P82930 = target: MRPS34, P82930
# Experimental: as §1
# NAP1L1, P55209 = target: NAP1L1, P55209
# Experimental: as §1
# NUP43, Q8NFH3 = target: NUP43, Q8NFH3
# Experimental: as §1
# SDF4, Q9BRK5 = target: SDF4, Q9BRK5
# Experimental: as §1
# SRSF5, Q13243 = target: SRSF5, Q13243
# Experimental: as §1
# TUBB8, Q3ZCM7 = target: TUBB8, Q3ZCM7
# Experimental: as §1
# ZRANB2, O95218 = target: ZRANB2, O95218
# Experimental: as §1
# ATP6AP1, Q15904 = target: ATP6AP1, Q15904
# Experimental: as §1
# DHTKD1, Q96HY7 = target: DHTKD1, Q96HY7
# Experimental: as §1
# DLX6, P56179 = target: DLX6, P56179
# Experimental: as §1
# HASPIN, Q8TF76 = target: HASPIN, Q8TF76
# Experimental: as §1
# IDH3B, O43837 = target: IDH3B, O43837
# Experimental: as §1
# KPNA4, O00629 = target: KPNA4, O00629
# Experimental: as §1
# LTF, P02788 = target: LTF, P02788
# Experimental: as §1
# MRPL10, Q7Z7H8 = target: MRPL10, Q7Z7H8
# Experimental: as §1
# MRPL39, Q9NYK5 = target: MRPL39, Q9NYK5
# Experimental: as §1
# MRPL9, Q9BYD2 = target: MRPL9, Q9BYD2
# Experimental: as §1
# MRPS35, P82673 = target: MRPS35, P82673
# Experimental: as §1
# NAP1L4, Q99733 = target: NAP1L4, Q99733
# Experimental: as §1
# PTCD3, Q96EY7 = target: PTCD3, Q96EY7
# Experimental: as §1
# UQCRC1, P31930 = target: UQCRC1, P31930
# Experimental: as §1
# RIOK1, Q9BRS2 = target: RIOK1, Q9BRS2
# Experimental: as §1
# RPLP1, P05386 = target: RPLP1, P05386
# Experimental: as §1
# SART3, Q15020 = target: SART3, Q15020
# Experimental: as §1
# SRSF1, Q07955 = target: SRSF1, Q07955
# Experimental: as §1
# SRSF10, O75494 = target: SRSF10, O75494
# Experimental: as §1
# SRSF4, Q08170 = target: SRSF4, Q08170
# Experimental: as §1
# SRSF6, Q13247 = target: SRSF6, Q13247
# Experimental: as §1
# SRSF7, Q16629 = target: SRSF7, Q16629
# Experimental: as §1
# SRSF9, Q13242 = target: SRSF9, Q13242
# Experimental: as §1
# SUPT4H1, P63272 = target: SUPT4H1, P63272
# Experimental: as §1
# SUPT5H, O00267 = target: SUPT5H, O00267
# Experimental: as §1
# CDC42EP1, Q00587 = target: CDC42EP1, Q00587
# Experimental: as §1
# GC, P02774 = target: GC, P02774
# Experimental: as §1
# ORC5, O43913 = target: ORC5, O43913
# Experimental: as §1
# DAP3, P51398 = target: DAP3, P51398
# Experimental: as §1
# DDX21, Q9NR30 = target: DDX21, Q9NR30
# Experimental: as §1
# HTATSF1, O43719 = target: HTATSF1, O43719
# Experimental: as §1
# LARP7, Q4G0J3 = target: LARP7, Q4G0J3
# Experimental: as §1
# MRPL11, Q9Y3B7 = target: MRPL11, Q9Y3B7
# Experimental: as §1
# MRPL15, Q9P015 = target: MRPL15, Q9P015
# Experimental: as §1
# MRPS14, O60783 = target: MRPS14, O60783
# Experimental: as §1
# MRPS26, Q9BYN8 = target: MRPS26, Q9BYN8
# Experimental: as §1
# MRPS5, P82675 = target: MRPS5, P82675
# Experimental: as §1
# PPM1G, O15355 = target: PPM1G, O15355
# Experimental: as §1
# SRP19, P09132 = target: SRP19, P09132
# Experimental: as §1
# SSRP1, Q08945 = target: SSRP1, Q08945
# Experimental: as §1
# VCP, P55072 = target: VCP, P55072
# Experimental: as §1
# ZC3H18, Q86VM9 = target: ZC3H18, Q86VM9
# Experimental: as §1
# hCG_1984214 = target: hCG_1984214
# Experimental: as §1
binder,measurement,setting,value
MSRSKRVSFPPGKCP [PELO],PRISMA enrichment of interactor (log2),"ANP32A, P39687",5.95
same,PRISMA enrichment of interactor (log2),"ANP32B, Q92688",7.78
same,PRISMA enrichment of interactor (log2),"ANP32E, Q9BTT0",6.62
same,PRISMA enrichment of interactor (log2),"MRPL17, Q9NRX2",9.74
same,PRISMA enrichment of interactor (log2),"MRPS34, P82930",5.28
same,PRISMA enrichment of interactor (log2),"NAP1L1, P55209",5.95
same,PRISMA enrichment of interactor (log2),"NUP43, Q8NFH3",5.04
same,PRISMA enrichment of interactor (log2),"SDF4, Q9BRK5",4.5
same,PRISMA enrichment of interactor (log2),"SRSF5, Q13243",4.76
same,PRISMA enrichment of interactor (log2),"TUBB8, Q3ZCM7",5.51
same,PRISMA enrichment of interactor (log2),"ZRANB2, O95218",5.1
MAASRTVMAVGRRR [NF1],PRISMA enrichment of interactor (log2),"ANP32A, P39687",5.7
same,PRISMA enrichment of interactor (log2),"ANP32B, Q92688",7.06
same,PRISMA enrichment of interactor (log2),"ANP32E, Q9BTT0",6.45
same,PRISMA enrichment of interactor (log2),"ATP6AP1, Q15904",9.25
same,PRISMA enrichment of interactor (log2),"DHTKD1, Q96HY7",5.03
same,PRISMA enrichment of interactor (log2),"DLX6, P56179",5.99
same,PRISMA enrichment of interactor (log2),"HASPIN, Q8TF76",6.47
same,PRISMA enrichment of interactor (log2),"IDH3B, O43837",6.84
same,PRISMA enrichment of interactor (log2),"KPNA4, O00629",5.15
same,PRISMA enrichment of interactor (log2),"LTF, P02788",4.35
same,PRISMA enrichment of interactor (log2),"MRPL10, Q7Z7H8",5.9
same,PRISMA enrichment of interactor (log2),"MRPL39, Q9NYK5",6.31
same,PRISMA enrichment of interactor (log2),"MRPL9, Q9BYD2",5.26
same,PRISMA enrichment of interactor (log2),"MRPS35, P82673",5.57
same,PRISMA enrichment of interactor (log2),"NAP1L1, P55209",6.44 ± 0.86
same,PRISMA enrichment of interactor (log2),"NAP1L4, Q99733",6.35
same,PRISMA enrichment of interactor (log2),"PTCD3, Q96EY7",5.5
same,PRISMA enrichment of interactor (log2),"TUBB8, Q3ZCM7",5.84
same,PRISMA enrichment of interactor (log2),"UQCRC1, P31930",6.79
MRSARPRS [GATA6],PRISMA enrichment of interactor (log2),"RIOK1, Q9BRS2",4.98
same,PRISMA enrichment of interactor (log2),"RPLP1, P05386",7.13
same,PRISMA enrichment of interactor (log2),"SART3, Q15020",5.8
same,PRISMA enrichment of interactor (log2),"SRSF1, Q07955",5.72
same,PRISMA enrichment of interactor (log2),"SRSF10, O75494",4.78
same,PRISMA enrichment of interactor (log2),"SRSF4, Q08170",5.02
same,PRISMA enrichment of interactor (log2),"SRSF5, Q13243",6.12
same,PRISMA enrichment of interactor (log2),"SRSF6, Q13247",5.27
same,PRISMA enrichment of interactor (log2),"SRSF7, Q16629",5.17
same,PRISMA enrichment of interactor (log2),"SRSF9, Q13242",6
same,PRISMA enrichment of interactor (log2),"SUPT4H1, P63272",4.11
same,PRISMA enrichment of interactor (log2),"SUPT5H, O00267",6.85
same,PRISMA enrichment of interactor (log2),"ZRANB2, O95218",5.73
MNLKSAAVKHRRL [ZFAND6],PRISMA enrichment of interactor (log2),"ANP32B, Q92688",6.81
same,PRISMA enrichment of interactor (log2),"ANP32E, Q9BTT0",5.84
same,PRISMA enrichment of interactor (log2),"CDC42EP1, Q00587",4.88
same,PRISMA enrichment of interactor (log2),"GC, P02774",4.05
same,PRISMA enrichment of interactor (log2),"NAP1L1, P55209",5.22
same,PRISMA enrichment of interactor (log2),"ORC5, O43913",6.22
MTSGRMRGR [ZNF677],PRISMA enrichment of interactor (log2),"ANP32B, Q92688",6.72
same,PRISMA enrichment of interactor (log2),"ANP32E, Q9BTT0",7
same,PRISMA enrichment of interactor (log2),"DAP3, P51398",5.94
same,PRISMA enrichment of interactor (log2),"DDX21, Q9NR30",5.69
same,PRISMA enrichment of interactor (log2),"HTATSF1, O43719",6.02
same,PRISMA enrichment of interactor (log2),"LARP7, Q4G0J3",4.88
same,PRISMA enrichment of interactor (log2),"MRPL10, Q7Z7H8",5.39
same,PRISMA enrichment of interactor (log2),"MRPL11, Q9Y3B7",4.82
same,PRISMA enrichment of interactor (log2),"MRPL15, Q9P015",5.16
same,PRISMA enrichment of interactor (log2),"MRPL39, Q9NYK5",5.79
same,PRISMA enrichment of interactor (log2),"MRPL9, Q9BYD2",5.9
same,PRISMA enrichment of interactor (log2),"MRPS14, O60783",4.64
same,PRISMA enrichment of interactor (log2),"MRPS26, Q9BYN8",5.07
same,PRISMA enrichment of interactor (log2),"MRPS34, P82930",5.25
same,PRISMA enrichment of interactor (log2),"MRPS35, P82673",5.4
same,PRISMA enrichment of interactor (log2),"MRPS5, P82675",5.17
same,PRISMA enrichment of interactor (log2),"NAP1L1, P55209",7 ± 0.45
same,PRISMA enrichment of interactor (log2),"NAP1L4, Q99733",6.05
same,PRISMA enrichment of interactor (log2),"PPM1G, O15355",5.63
same,PRISMA enrichment of interactor (log2),"PTCD3, Q96EY7",6.2
same,PRISMA enrichment of interactor (log2),"RPLP1, P05386",6.27
same,PRISMA enrichment of interactor (log2),"SRP19, P09132",4.83
same,PRISMA enrichment of interactor (log2),"SRSF5, Q13243",5.11
same,PRISMA enrichment of interactor (log2),"SRSF9, Q13242",5.73
same,PRISMA enrichment of interactor (log2),"SSRP1, Q08945",5.15
same,PRISMA enrichment of interactor (log2),"SUPT5H, O00267",5.06
same,PRISMA enrichment of interactor (log2),"VCP, P55072",5.15
same,PRISMA enrichment of interactor (log2),"ZC3H18, Q86VM9",5.23
same,PRISMA enrichment of interactor (log2),hCG_1984214,4.78

# An excerpt of these results, with bars between the fields:
binder | measurement | setting | value
MRSARPRS [GATA6] | PRISMA enrichment of interactor (log2) | SUPT5H, O00267 | 6.85
same | PRISMA enrichment of interactor (log2) | ZRANB2, O95218 | 5.73
MNLKSAAVKHRRL [ZFAND6] | PRISMA enrichment of interactor (log2) | ANP32B, Q92688 | 6.81
